Experimental data taken from publication PMC9629720, “Lipids mediate supramolecular outer membrane protein assembly in bacteria” (Science Advances, 2022).
Results are given in words; binding and its absence hold for the method and conditions named.

Biological target: T1, OmpF, wild type, purified (E. coli), P02931
T1 chain: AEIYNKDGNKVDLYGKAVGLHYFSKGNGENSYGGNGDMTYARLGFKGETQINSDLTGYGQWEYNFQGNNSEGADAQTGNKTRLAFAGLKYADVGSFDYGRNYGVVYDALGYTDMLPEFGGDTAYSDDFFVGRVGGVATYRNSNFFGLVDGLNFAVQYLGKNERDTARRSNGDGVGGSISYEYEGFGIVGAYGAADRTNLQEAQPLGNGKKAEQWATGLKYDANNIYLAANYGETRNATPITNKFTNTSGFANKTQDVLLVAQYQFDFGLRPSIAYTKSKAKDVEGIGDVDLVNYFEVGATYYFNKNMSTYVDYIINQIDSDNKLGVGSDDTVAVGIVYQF
Test: native gel or EMSA; blue native PAGE, 4-16% bis-tris gel, 4°C; purified proteins alone or mixed, 10 to 20 μM (BtuB added at 15 μM) in 10 mM tris-HCl pH 8.0, 5 mM EDTA, 1% β-OG; for OmpF alone: trimer with trimer; both purified
Conditions: remark: other sources report otherwise

B1: BtuB, wild type, purified (with LPS bound noncovalently), P06129 21-614 (protein)
chain: QDTSPDTLVVTANRFEQPRSTVLAPTTVVTRQDIDRWQSTSVNDVLRRLPGVDITQNGGSGQLSSIFIRGTNASHVLVLIDGVRLNLAGVSGSADLSQFPIALVQRVEYIRGPRSAVYGSDAIGGVVNIITTRDEPGTEISAGWGSNSYQNYDVSTQQQLGDKTRVTLLGDYAHTHGYDVVAYGNTGTQAQTDNDGFLSKTLYGALEHNFTDAWSGFVRGYGYDNRTNYDAYYSPGSPLLDTRKLYSQSWDAGLRYNGELIKSQLITSYSHSKDYNYDPHYGRYDSSATLDEMKQYTVQWANNVIVGHGSIGAGVDWQKQTTTPGTGYVEDGYDQRNTGIYLTGLQQVGDFTFEGAARSDDNSQFGRHGTWQTSAGWEFIEGYRFIASYGTSYKAPNLGQLYGFYGNPNLDPEKSKQWEGAFEGLTAGVNWRISGYRNDVSDLIDYDDHTLKYYNEGKARIKGVEATANFDTGPLTHTVSYDYVDARNAITDTPLLRRAKQQVKYQLDWQLYDFDWGITYQYLGTRYDKDYSSYPYQTVKMGGVSLWDLAVAYPVTSHLTVRGKIANLFDKDYETVYGYQTAGREYTLSGSYTF
binding: no binding (tested: 20 μM)
